These are yes or no findings as the source states them, for the method shown. In cells and extracts the contact can be indirect. These calls come from enrichment with a bait or labelling near it, and not all partners need be listed.
Biological target: Flag-CRBN (cereblon) (UniProt Q96SW2)
Experiment: affinity purification with mass spectrometry

By UniProt entry, the sequences of proteins in these tests, tags left out.
UniProt Q96SW2: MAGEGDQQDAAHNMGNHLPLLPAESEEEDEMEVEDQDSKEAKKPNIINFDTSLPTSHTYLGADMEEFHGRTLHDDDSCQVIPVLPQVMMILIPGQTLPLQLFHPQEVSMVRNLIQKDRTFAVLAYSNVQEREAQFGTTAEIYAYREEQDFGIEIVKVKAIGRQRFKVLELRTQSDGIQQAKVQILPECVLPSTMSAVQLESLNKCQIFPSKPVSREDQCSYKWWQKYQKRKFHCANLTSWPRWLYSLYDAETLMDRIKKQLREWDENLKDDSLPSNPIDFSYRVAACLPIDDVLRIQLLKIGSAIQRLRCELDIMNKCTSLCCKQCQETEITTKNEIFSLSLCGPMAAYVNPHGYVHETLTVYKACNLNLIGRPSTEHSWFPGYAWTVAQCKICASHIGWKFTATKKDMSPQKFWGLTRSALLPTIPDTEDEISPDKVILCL
UniProt Q13620: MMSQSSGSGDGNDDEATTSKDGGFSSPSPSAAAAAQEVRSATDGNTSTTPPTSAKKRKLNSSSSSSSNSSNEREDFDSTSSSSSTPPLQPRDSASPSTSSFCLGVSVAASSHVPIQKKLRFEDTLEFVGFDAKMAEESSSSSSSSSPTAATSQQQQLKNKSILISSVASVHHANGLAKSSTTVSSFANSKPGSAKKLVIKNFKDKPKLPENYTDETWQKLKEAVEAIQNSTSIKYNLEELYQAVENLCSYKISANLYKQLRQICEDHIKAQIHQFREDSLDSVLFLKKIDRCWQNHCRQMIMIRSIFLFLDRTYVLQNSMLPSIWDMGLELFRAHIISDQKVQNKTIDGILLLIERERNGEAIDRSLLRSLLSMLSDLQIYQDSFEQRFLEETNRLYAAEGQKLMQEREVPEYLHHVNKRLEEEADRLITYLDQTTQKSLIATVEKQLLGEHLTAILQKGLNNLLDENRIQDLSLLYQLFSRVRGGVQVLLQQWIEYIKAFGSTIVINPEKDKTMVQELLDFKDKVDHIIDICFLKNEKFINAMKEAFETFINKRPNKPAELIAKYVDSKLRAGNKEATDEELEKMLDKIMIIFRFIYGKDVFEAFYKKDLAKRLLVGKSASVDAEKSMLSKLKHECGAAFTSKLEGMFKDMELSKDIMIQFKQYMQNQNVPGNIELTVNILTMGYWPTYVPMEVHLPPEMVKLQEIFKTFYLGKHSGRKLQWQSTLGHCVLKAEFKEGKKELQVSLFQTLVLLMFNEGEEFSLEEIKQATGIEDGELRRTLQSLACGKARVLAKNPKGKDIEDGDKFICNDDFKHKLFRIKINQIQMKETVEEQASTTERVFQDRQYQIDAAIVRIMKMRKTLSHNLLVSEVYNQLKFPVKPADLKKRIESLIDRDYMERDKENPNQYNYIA
UniProt Q13619: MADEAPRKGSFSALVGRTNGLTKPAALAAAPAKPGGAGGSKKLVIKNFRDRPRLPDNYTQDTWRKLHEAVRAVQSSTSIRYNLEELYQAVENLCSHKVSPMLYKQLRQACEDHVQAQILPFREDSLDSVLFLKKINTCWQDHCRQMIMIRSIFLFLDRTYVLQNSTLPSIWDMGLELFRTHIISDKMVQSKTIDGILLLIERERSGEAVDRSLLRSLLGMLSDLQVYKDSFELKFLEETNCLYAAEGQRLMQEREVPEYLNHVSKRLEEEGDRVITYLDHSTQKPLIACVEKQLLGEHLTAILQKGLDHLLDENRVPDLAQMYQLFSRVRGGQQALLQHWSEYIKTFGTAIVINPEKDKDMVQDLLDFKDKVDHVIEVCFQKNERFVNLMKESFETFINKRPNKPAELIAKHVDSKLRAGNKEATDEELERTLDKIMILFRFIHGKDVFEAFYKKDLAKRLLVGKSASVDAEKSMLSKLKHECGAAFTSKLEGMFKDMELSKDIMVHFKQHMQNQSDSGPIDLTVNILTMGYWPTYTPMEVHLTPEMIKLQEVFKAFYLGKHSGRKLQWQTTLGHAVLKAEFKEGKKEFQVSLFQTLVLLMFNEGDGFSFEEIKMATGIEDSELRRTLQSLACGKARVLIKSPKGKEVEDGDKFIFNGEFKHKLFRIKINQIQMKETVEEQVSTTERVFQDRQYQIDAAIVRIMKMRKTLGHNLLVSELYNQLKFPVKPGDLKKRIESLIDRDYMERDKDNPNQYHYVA

binding	Substance
binds	Cullin-4B (CUL4B) (from UniProt Q13620 1-913)
binds	Cullin-4A (CUL4A) (from UniProt Q13619 1-759)

From publication doi:10.1101/2021.07.12.452075
